Data as given in PubChem BioAssay AID1259308 (NCATS, 2017).

Screen: 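Genes whose loss raises luciferase production in HEK293 cells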 (primary screen)
Cells: human HEK293 embryonic kidney cells stably expressing firefly luciferase (HEK-CMV-Luc2-Hygro)
Knock-down reagent: single siRNA against human genes, 0.8 pmol siRNA per well
Timing: 72 h
Detection: 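Luciferase light (ONE-Glo) measured on one replicate plate set and viability (CellTiter-Glo) on the other, scaled to a negative control siRNA, with robust z-scores and luciferase per cell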
Direction: total luciferase, z-score: higher = more reporter protein produced
Hit rule: 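An siRNA counts as active if its total luciferase robust z-score exceeds 3; genes with two or more such siRNAs out of three were retested with fresh siRNAs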
Meaning of the calls: active = raised luciferase; inactive = no rise
Shown is an unselected part of about 59,000 reagents. In the full data, about 1,510 (2.6%) are marked active. 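Calls use total luciferase alone and ignore viability, so some active siRNAs may act by altering cell number.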 Reagents against one gene are numbered here. Further read-outs or replicates are left out here. No sequences are given here.

LTBP3 (GeneID 4054) #1 — total luciferase, z-score: -0.204; outcome: inactive
LTBP3 (GeneID 4054) #2 — total luciferase, z-score: 0.0389; outcome: inactive
LTBP3 (GeneID 4054) #3 — total luciferase, z-score: -0.35; outcome: inactive
ERBB3 (GeneID 2065) #1 — total luciferase, z-score: 0.514; outcome: inactive
ERBB3 (GeneID 2065) #2 — total luciferase, z-score: -0.162; outcome: inactive
ERBB3 (GeneID 2065) #3 — total luciferase, z-score: 1; outcome: inactive
FMN2 (GeneID 56776) #1 — total luciferase, z-score: 0.554; outcome: inactive
FMN2 (GeneID 56776) #2 — total luciferase, z-score: -0.28; outcome: inactive
FMN2 (GeneID 56776) #3 — total luciferase, z-score: -0.941; outcome: inactive
C14orf93 (GeneID 60686) #1 — total luciferase, z-score: 0.39; outcome: inactive
C14orf93 (GeneID 60686) #2 — total luciferase, z-score: 0.237; outcome: inactive
C14orf93 (GeneID 60686) #3 — total luciferase, z-score: -0.881; outcome: inactive
RAD51B (GeneID 5890) #1 — total luciferase, z-score: -1.08; outcome: inactive
RAD51B (GeneID 5890) #2 — total luciferase, z-score: -0.544; outcome: inactive
RAD51B (GeneID 5890) #3 — total luciferase, z-score: -0.946; outcome: inactive
DNPEP (GeneID 23549) #1 — total luciferase, z-score: -1.56; outcome: inactive
DNPEP (GeneID 23549) #2 — total luciferase, z-score: 2.69; outcome: inactive
DNPEP (GeneID 23549) #3 — total luciferase, z-score: -0.745; outcome: inactive
FHIP2A (GeneID 57700) #1 — total luciferase, z-score: -0.74; outcome: inactive
FHIP2A (GeneID 57700) #2 — total luciferase, z-score: -0.29; outcome: inactive
FHIP2A (GeneID 57700) #3 — total luciferase, z-score: 0.414; outcome: inactive
ZG16B (GeneID 124220) #1 — total luciferase, z-score: 2.83; outcome: inactive
ZG16B (GeneID 124220) #2 — total luciferase, z-score: -0.749; outcome: inactive
ZG16B (GeneID 124220) #3 — total luciferase, z-score: 0.024; outcome: inactive
PACRG-AS3 (GeneID 729658) #1 — total luciferase, z-score: 0.509; outcome: inactive
PACRG-AS3 (GeneID 729658) #2 — total luciferase, z-score: 2.34; outcome: inactive
PACRG-AS3 (GeneID 729658) #3 — total luciferase, z-score: 6.79; outcome: active
FRY (GeneID 10129) #1 — total luciferase, z-score: 0.808; outcome: inactive
FRY (GeneID 10129) #2 — total luciferase, z-score: 0.423; outcome: inactive
FRY (GeneID 10129) #3 — total luciferase, z-score: -1.06; outcome: inactive
NCAPG (GeneID 64151) #1 — total luciferase, z-score: -0.0736; outcome: inactive
NCAPG (GeneID 64151) #2 — total luciferase, z-score: -0.561; outcome: inactive
NCAPG (GeneID 64151) #3 — total luciferase, z-score: -0.687; outcome: inactive

No new results follow: 4 of the entries above.
FRY (GeneID 10129) #2 — total luciferase, z-score: 0.423; outcome: inactive
FRY (GeneID 10129) #3 — total luciferase, z-score: -1.06; outcome: inactive
NCAPG (GeneID 64151) #1 — total luciferase, z-score: -0.0736; outcome: inactive
NCAPG (GeneID 64151) #2 — total luciferase, z-score: -0.561; outcome: inactive
